Measured values as given in article PMC5147768.

How the values were obtained:
[1] = target: T1, GST-DBR1 (Arabidopsis thaliana (Col-0)) (UniProt Q94K01); assay: EMSA; settings: 2 ug tRNA, R-EMSA: 20 ul, binding buffer of RNA EMSA kit (Thermo), 5% glycerol, 2 nM biotin-RNA, 30 min, 6.5% native PAGE, pH and temperature not stated, recombinant protein, protein details: GST, label: 5' biotin (probe), unlabeled as cold competitor, probe letters rebuilt from the primers and the genome
T1 sequence (looked up, limits assumed): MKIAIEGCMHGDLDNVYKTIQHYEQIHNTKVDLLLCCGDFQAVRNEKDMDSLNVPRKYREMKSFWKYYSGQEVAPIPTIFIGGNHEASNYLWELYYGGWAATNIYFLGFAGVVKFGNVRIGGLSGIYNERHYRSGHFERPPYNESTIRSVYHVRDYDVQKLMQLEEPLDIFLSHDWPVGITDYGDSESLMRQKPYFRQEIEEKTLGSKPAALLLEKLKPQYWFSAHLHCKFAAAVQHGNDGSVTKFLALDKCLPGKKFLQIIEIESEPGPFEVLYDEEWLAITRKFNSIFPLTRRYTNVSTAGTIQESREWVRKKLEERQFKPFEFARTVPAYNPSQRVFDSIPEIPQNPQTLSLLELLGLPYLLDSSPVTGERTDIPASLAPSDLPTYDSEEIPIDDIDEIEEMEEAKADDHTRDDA

[2] = target: T2, MBP-HYL1-D1D2 (Arabidopsis thaliana) (UniProt O04492); assay: EMSA; settings: 2 ug tRNA, R-EMSA: 20 ul, binding buffer of RNA EMSA kit (Thermo), 5% glycerol, 2 nM biotin-RNA, 30 min, 6.5% native PAGE, pH and temperature not stated, recombinant protein, protein details: MBP, label: 5' biotin (probe), unlabeled as cold competitor, probe letters rebuilt from the primers and the genome
T2 sequence (looked up, limits assumed): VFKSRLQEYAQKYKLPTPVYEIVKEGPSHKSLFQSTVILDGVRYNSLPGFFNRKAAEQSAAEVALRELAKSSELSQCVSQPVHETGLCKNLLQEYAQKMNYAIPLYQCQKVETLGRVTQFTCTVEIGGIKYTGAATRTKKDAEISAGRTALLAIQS

[3] = target: T2, MBP-HYL1-D1D2 (Arabidopsis thaliana); assay: competition with a labelled probe; settings: R-EMSA: 20 ul, binding buffer of RNA EMSA kit (Thermo), 5% glycerol, 2 ug tRNA, 2 nM biotin-RNA, 30 min, 6.5% native PAGE, pH and temperature not stated, recombinant protein, protein details: MBP, probe letters rebuilt from the primers and the genome

| Sequence | binding result [1] | binding result [2] | binding result ([3]; cold pri-miR167b as positive control competitor, label: 5' biotin (probe), unlabeled as cold competitor) | binding result ([3]; cold competitor versus biotin-pri-miR167b, minor competition) |
| --- | --- | --- | --- | --- |
| GGAUUUCUCCACUUCUUGAGCUUCCGUUUUUUACAAUUAUUGAUCCGUCAAAUAUGUGAGAUUUGCACAACUUGUUGCUCAGGUAUUUUGAAGACAAGUCCACAAGGGAACAAGUGAAGCUGCCAGCAUGAUCUAUCUUUGGUUAAGAGAUGAAUGUGGAAACAUAUUGCUUAAACCCAAGCUAGGUCAUGCUCUGACAGCCUCACUCCUUCCUGGUUUAGGACCAUUCAUUGAUGAAGCAUUCCACAUGCCGAUUGAAAGAAAAAUAAGAGUCCCGAACGCACACAGUUGACU [pri-miR167b] | no binding | binds | binds | – |
| GGGAGAAUGGCCUUAUCUUCUCUCCUCAGAUCUGCCGCCACUUCCGCCGCAGCUCCUCGUGUCGAGCUUUAUCCAUCGUCAUCGUACAAUCAUUCUCAGGUAUUAAACGUUUUCGUUUCUCACUCUUGCGUUUG [GAPDH linear RNA] | – | – | – | binds more weakly |

Construct, isoform or probe ends are uncertain for at least one entry. For some of these results: No signal at the amounts used counts as a negative. Tags and fusion partners may be left off the protein sequences shown. For some of these results: The comparison behind a weaker result is the experiment's own reference, which may not be listed here. For some of these results: At least one verdict rests on a figure or table, not on a statement of the authors.
